# Assay results published in paper PMC11005723, “Development of Complementary Photo‐arginine/lysine to Promote Discovery of Arg/Lys hPTMs Interactomes” (Advanced Science, 2024).
# Further values from the same series stand in other lists.
# Test system: HEK293T nuclear lysates
# Assay: SILAC‐based pull‐down proteomics H4K5me1/H4K5 (probes 6/5)
# Format: binding, human
substance,measurement,setting,value
probe 6: H4K5me peptide probe with photo‐arginine R(dz) and K(biotin) (SGRGKGGKGLGKGGK; photo-arginine R(dz) at 3; monomethyl-lysine at 5; K(biotin) at 15),B6 log2 (H4K5me/H4K5),"protein RAP1A (P62834), run B6",-0.007077
same,C6 log (H4K5me/H4K5),"protein RAP1A (P62834), run C6",-0.4769
same,B6 log2 (H4K5me/H4K5),"protein RBBP4 (Q09028), SILAC run B6",-0.4064
same,C6 log (H4K5me/H4K5),"protein RBBP4 (Q09028), SILAC run C6",-0.3461
same,B6 log2 (H4K5me/H4K5),"protein RBM4 (Q9BWF3), run B6",0.04912
same,C6 log (H4K5me/H4K5),"protein RBM4 (Q9BWF3), run C6",0.06332
same,B6 log2 (H4K5me/H4K5),"protein RBM25 (P49756), run B6",-0.007613
same,C6 log (H4K5me/H4K5),"protein RBM25 (P49756), run C6",0.03292
same,B6 log2 (H4K5me/H4K5),"protein RBM28 (Q9NW13), run B6",0.08184
same,C6 log (H4K5me/H4K5),"protein RBM28 (Q9NW13), run C6",-0.1684
same,B6 log2 (H4K5me/H4K5),"protein RCC1 (P18754), run B6",-0.02509
same,C6 log (H4K5me/H4K5),"protein RCC1 (P18754), run C6",0.07571
same,B6 log2 (H4K5me/H4K5),"protein RCC2 (Q9P258), run B6",-0.001202
same,C6 log (H4K5me/H4K5),"protein RCC2 (Q9P258), run C6",0.002068
same,B6 log2 (H4K5me/H4K5),"protein RFC2 (P35250), SILAC run B6",-0.5639
same,C6 log (H4K5me/H4K5),"protein RFC2 (P35250), SILAC run C6",0.2299
same,B6 log2 (H4K5me/H4K5),"protein RNPS1 (H3BV80), run B6",-0.01134
same,C6 log (H4K5me/H4K5),"protein RNPS1 (H3BV80), run C6",0.06229
same,B6 log2 (H4K5me/H4K5),"protein RPL3 (P39023), run B6",0.08452
same,C6 log (H4K5me/H4K5),"protein RPL3 (P39023), run C6",-0.06083
same,B6 log2 (H4K5me/H4K5),"protein RPL8 (E9PKZ0), run B6",0.1175
same,C6 log (H4K5me/H4K5),"protein RPL8 (E9PKZ0), run C6",-0.1679
same,B6 log2 (H4K5me/H4K5),"protein RPL13 (P26373), SILAC run B6",-0.4659
same,C6 log (H4K5me/H4K5),"protein RPL13 (P26373), SILAC run C6",-0.6354
same,B6 log2 (H4K5me/H4K5),"protein RPL17 (A0A087WXM6), SILAC run B6",-0.2705
same,C6 log (H4K5me/H4K5),"protein RPL17 (A0A087WXM6), SILAC run C6",-0.07394
same,B6 log2 (H4K5me/H4K5),"protein RPL24 (C9JXB8), SILAC run B6",-0.2131
same,C6 log (H4K5me/H4K5),"protein RPL24 (C9JXB8), SILAC run C6",-0.1626
same,B6 log2 (H4K5me/H4K5),"protein RPL27A (E9PJD9), run B6",0.04612
same,C6 log (H4K5me/H4K5),"protein RPL27A (E9PJD9), run C6",-0.02178
same,B6 log2 (H4K5me/H4K5),"protein RPS6 (P62753), SILAC run B6",-0.2158
same,C6 log (H4K5me/H4K5),"protein RPS6 (P62753), SILAC run C6",-0.1733
same,B6 log2 (H4K5me/H4K5),"protein RPS9 (P46781), run B6",-0.01835
same,C6 log (H4K5me/H4K5),"protein RPS9 (P46781), run C6",0.07362
same,B6 log2 (H4K5me/H4K5),"protein RRP1 (P56182), run B6",0.1139
same,C6 log (H4K5me/H4K5),"protein RRP1 (P56182), run C6",0.1334
same,B6 log2 (H4K5me/H4K5),"protein RRP1B (Q14684), SILAC run B6",-0.2069
same,C6 log (H4K5me/H4K5),"protein RRP1B (Q14684), SILAC run C6",-0.07412
same,B6 log2 (H4K5me/H4K5),"protein RSL1D1 (J3QSV6), SILAC run B6",-0.2399
same,C6 log (H4K5me/H4K5),"protein RSL1D1 (J3QSV6), SILAC run C6",-0.2367
same,B6 log2 (H4K5me/H4K5),"protein RYBP (Q8N488), SILAC run B6",-0.5235
same,C6 log (H4K5me/H4K5),"protein RYBP (Q8N488), SILAC run C6",-0.6604
same,B6 log2 (H4K5me/H4K5),"protein S4R3H4 ACIN1, run B6",0.3258
same,C6 log (H4K5me/H4K5),"protein S4R3H4 ACIN1, run C6",0.1683
same,B6 log2 (H4K5me/H4K5),"protein SAFB2 (Q14151), run B6",0.07268
same,C6 log (H4K5me/H4K5),"protein SAFB2 (Q14151), run C6",-0.1575
same,B6 log2 (H4K5me/H4K5),"protein SATB2 (C9JR56), SILAC run B6",-0.2229
same,C6 log (H4K5me/H4K5),"protein SATB2 (C9JR56), SILAC run C6",-0.1156
same,B6 log2 (H4K5me/H4K5),"protein SCRN1 (Q12765), SILAC run B6",-1.283
same,C6 log (H4K5me/H4K5),"protein SCRN1 (Q12765), SILAC run C6",-0.7873
same,B6 log2 (H4K5me/H4K5),"protein SEPHS1 (P49903), run B6",-0.02418
same,C6 log (H4K5me/H4K5),"protein SEPHS1 (P49903), run C6",-0.2248
same,B6 log2 (H4K5me/H4K5),"protein SEPT7 (E7ES33), SILAC run B6",-0.5479
same,C6 log (H4K5me/H4K5),"protein SEPT7 (E7ES33), SILAC run C6",-0.9057
same,B6 log2 (H4K5me/H4K5),"protein SEPT9 (Q9UHD8), SILAC run B6",-0.7376
same,C6 log (H4K5me/H4K5),"protein SEPT9 (Q9UHD8), SILAC run C6",-1.027
same,B6 log2 (H4K5me/H4K5),"protein SERBP1 (Q8NC51), run B6",-0.01825
same,C6 log (H4K5me/H4K5),"protein SERBP1 (Q8NC51), run C6",0.000826
same,B6 log2 (H4K5me/H4K5),"protein SET (Q01105), run B6",0.02345
same,C6 log (H4K5me/H4K5),"protein SET (Q01105), run C6",0.002162
same,B6 log2 (H4K5me/H4K5),"protein SF3B2 (Q13435), run B6",0.01409
same,C6 log (H4K5me/H4K5),"protein SF3B2 (Q13435), run C6",0.05282
same,B6 log2 (H4K5me/H4K5),"protein SFPQ (P23246), SILAC run B6",-0.1964
same,C6 log (H4K5me/H4K5),"protein SFPQ (P23246), SILAC run C6",-0.1626
same,B6 log2 (H4K5me/H4K5),"protein SHMT2 (H0YIZ0), SILAC run B6",-0.4157
same,C6 log (H4K5me/H4K5),"protein SHMT2 (H0YIZ0), SILAC run C6",-0.3495
same,B6 log2 (H4K5me/H4K5),"protein SKIV2L2 (P42285), SILAC run B6",-0.2278
same,C6 log (H4K5me/H4K5),"protein SKIV2L2 (P42285), SILAC run C6",0.1964
same,B6 log2 (H4K5me/H4K5),"protein SLC4A1AP (A0A087X0M4), run B6",0.07671
same,C6 log (H4K5me/H4K5),"protein SLC4A1AP (A0A087X0M4), run C6",-0.1873
same,B6 log2 (H4K5me/H4K5),"protein SMARCA5 (O60264), run B6",0.1127
same,C6 log (H4K5me/H4K5),"protein SMARCA5 (O60264), run C6",0.1015
same,B6 log2 (H4K5me/H4K5),"protein SMARCAD1 (Q9H4L7), run B6",0.1065
same,C6 log (H4K5me/H4K5),"protein SMARCAD1 (Q9H4L7), run C6",0.07169
same,B6 log2 (H4K5me/H4K5),"protein SMARCC2 (Q8TAQ2), run B6",0.115
same,C6 log (H4K5me/H4K5),"protein SMARCC2 (Q8TAQ2), run C6",0.2952
same,B6 log2 (H4K5me/H4K5),"protein SMCHD1 (A6NHR9), run B6",0.05088
same,C6 log (H4K5me/H4K5),"protein SMCHD1 (A6NHR9), run C6",0.2468
same,B6 log2 (H4K5me/H4K5),"protein SMU1 (Q2TAY7), run B6",0.007935
same,C6 log (H4K5me/H4K5),"protein SMU1 (Q2TAY7), run C6",0.2956
same,B6 log2 (H4K5me/H4K5),"protein SNRPD3 (P62318), run B6",0.08292
same,C6 log (H4K5me/H4K5),"protein SNRPD3 (P62318), run C6",-0.5215
same,B6 log2 (H4K5me/H4K5),"protein SNRPN (J3QLE5), run B6",0.1033
same,C6 log (H4K5me/H4K5),"protein SNRPN (J3QLE5), run C6",0.3043
same,B6 log2 (H4K5me/H4K5),"protein SP1 (P08047), run B6",0.09154
same,C6 log (H4K5me/H4K5),"protein SP1 (P08047), run C6",0.1425
same,B6 log2 (H4K5me/H4K5),"protein SRPK1 (Q96SB4), run B6",0.05055
same,C6 log (H4K5me/H4K5),"protein SRPK1 (Q96SB4), run C6",-0.002077
same,B6 log2 (H4K5me/H4K5),"protein SRRM1 (Q8IYB3), run B6",0.05819
same,C6 log (H4K5me/H4K5),"protein SRRM1 (Q8IYB3), run C6",-0.1474
same,B6 log2 (H4K5me/H4K5),"protein SRRM2 (Q9UQ35), SILAC run B6",-0.2967
same,C6 log (H4K5me/H4K5),"protein SRRM2 (Q9UQ35), SILAC run C6",-0.3124
same,B6 log2 (H4K5me/H4K5),"protein SRSF2 (J3QL05), run B6",0.01244
same,C6 log (H4K5me/H4K5),"protein SRSF2 (J3QL05), run C6",-0.01693
same,B6 log2 (H4K5me/H4K5),"protein SRSF3 (P84103), run B6",0.06757
same,C6 log (H4K5me/H4K5),"protein SRSF3 (P84103), run C6",0.1396
same,B6 log2 (H4K5me/H4K5),"protein SRSF4 (Q08170), run B6",0.04611
same,C6 log (H4K5me/H4K5),"protein SRSF4 (Q08170), run C6",0.02184
same,B6 log2 (H4K5me/H4K5),"protein SRSF9 (Q13242), run B6",0.05869
same,C6 log (H4K5me/H4K5),"protein SRSF9 (Q13242), run C6",0.008714
same,B6 log2 (H4K5me/H4K5),"protein SSU72 (Q9NP77), SILAC run B6",-0.9312
same,C6 log (H4K5me/H4K5),"protein SSU72 (Q9NP77), SILAC run C6",-0.5875
same,B6 log2 (H4K5me/H4K5),"protein STIP1 (F5H783), run B6",-0.02077
same,C6 log (H4K5me/H4K5),"protein STIP1 (F5H783), run C6",0.2627
same,B6 log2 (H4K5me/H4K5),"protein STRAP (Q9Y3F4), run B6",0.01999
same,C6 log (H4K5me/H4K5),"protein STRAP (Q9Y3F4), run C6",0.07545
same,B6 log2 (H4K5me/H4K5),"protein SUMO1 (P63165), SILAC run B6",-0.2603
same,C6 log (H4K5me/H4K5),"protein SUMO1 (P63165), SILAC run C6",-0.1977
same,B6 log2 (H4K5me/H4K5),"protein SYMPK (Q92797), SILAC run B6",-0.4801
same,C6 log (H4K5me/H4K5),"protein SYMPK (Q92797), SILAC run C6",-0.2582
same,B6 log2 (H4K5me/H4K5),"protein SYNCRIP (O60506), run B6",0.1142
same,C6 log (H4K5me/H4K5),"protein SYNCRIP (O60506), run C6",-0.05723
same,B6 log2 (H4K5me/H4K5),"protein TARDBP (A0A087WX29), run B6",0.02534
